Screen size: about 360,000 compounds; about 9,100 (2.5%) were called active. Inconclusive results, whose numbers are uncertain, are shown with a selection of clear calls. Cut-off read from the data, not from the text of the source: active = max response below about -50%; inconclusive = no clear call, values can overlap the other calls; inactive = above that.
Molecular target: D(3) dopamine receptor (Homo sapiens) (UniProt P35462)
Assay: qHTS of D3 Dopamine Receptor Antagonist: qHTS
Settings: D3R cells, DiscoveRx beta-arrestin luminescence, antagonist mode; active compounds read low
Procedure, shortened: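 Cells expressing the human receptor were seeded at 1500 cells/well, incubated overnight at 37 degrees C in 5% CO2, then exposed to library compounds with dopamine controls for 90 minutes at 37 degrees C before luminescent detection.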
% is set by controls: 0 for no effect and ±100 for the full control effect.

By UniProt entry, the sequences of proteins in these tests, tags left out.
UniProt P35462, whole entry, looked up: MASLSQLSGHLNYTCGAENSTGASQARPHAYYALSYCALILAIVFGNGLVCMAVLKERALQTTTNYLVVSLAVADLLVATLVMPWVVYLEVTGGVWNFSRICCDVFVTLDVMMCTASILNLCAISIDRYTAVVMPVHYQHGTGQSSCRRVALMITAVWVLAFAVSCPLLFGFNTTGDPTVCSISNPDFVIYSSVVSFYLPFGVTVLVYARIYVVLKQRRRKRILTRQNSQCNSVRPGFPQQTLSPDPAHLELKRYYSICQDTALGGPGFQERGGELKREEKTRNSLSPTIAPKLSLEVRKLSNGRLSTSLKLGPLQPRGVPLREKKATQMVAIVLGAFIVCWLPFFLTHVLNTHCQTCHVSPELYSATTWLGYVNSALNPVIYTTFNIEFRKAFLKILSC

Max response, negative = inhibition, active:
CCc1nc2c(OCCC3CCCCC3)cccn2c1N(C)C(=O)C1CC1 -66%, O=S(=O)(c1ccc(Cl)cc1)N1CCC(N2CCCCCC2)CC1 -66.8%, COC(=O)[C@H](C)N(Cc1ccc(Cl)c(Cl)c1)S(=O)(=O)CCN1CCCC1 -67.8%, Oc1c(CN2CCc3ccccc3C2)cc(Cl)c2cccnc12 -139%, Cc1ccc(C(=O)N2CCCC(N(C)Cc3ccccc3)C2)s1 (stereo unspecified) -61.7%, CC1CCN(CCOCCSc2ccc(Cl)cc2)CC1 -110%

Max response, negative = inhibition, inconclusive:
Cc1ccc(Nc2cc(C)nn2-c2nc(C)cc(C)n2)cc1 -41.7%, COc1ccc(Cl)cc1S(=O)(=O)N1CCC(C(=O)NCC2CCCO2)CC1 (stereo unspecified) -47.7%, COc1ccccc1NC(=S)N(Cc1ccco1)Cc1cc2cc(C)cc(C)c2[nH]c1=O -39.8%, COc1ccccc1CNS(=O)(=O)c1ccc(NC(C)=O)cc1 -34.3%, CCCn1nc(NS(=O)(=O)c2cccc3nonc23)c2cc3ccccc3nc21 -33.3%, CCCc1ccc2oc(C(=O)NCCc3cnn(C)c3)c(C)c2c1 -31.3%, COc1ccc(C(=O)Oc2cc(C)[nH]c(=O)c2[N+](=O)[O-])c(OC)c1 -34.8%, COc1ccc(Br)cc1CN1CCCCCCC1 -33.9%, O=C(NCCN1CCN(c2ccccc2)CC1)Nc1cccc(Cl)c1 -48.9%, CCc1ccc(Nc2cc(=O)n(C3CCCCC3)c(=O)[nH]2)cc1 -46.5%, O=C1NCCN1CCNc1nc(NCC2CC2)nc2cc(-c3ccccc3)sc12 -34%, COc1ccc(-c2onc(C)c2-c2cnn(-c3ccccc3)c2)c(O)c1C -31.4%, CCc1nc2ccc(C(=O)NC3CCN(Cc4ccccc4)CC3)cn2c1N(CC)CCOC -40.4%, O=C(N/N=C\c1ccc([N+](=O)[O-])s1)c1cncc(Br)c1 -36.2%, COc1ccc(OC)c(S(=O)(=O)NCC2CCCO2)c1 (stereo unspecified) -49.8%, Cc1nc(N2CCN(C)CC2)c2c(C)c(C(=O)Nc3ccc(F)cc3)sc2n1 -45.2%, CS(=O)(=O)c1ccc2nc(NC(=O)Cc3ccccc3)sc2c1 -32.7%, Cc1cc(O)c(N=Nc2ccc(C(=O)O)cc2)cc1C -35.6%, Cn1c(CCN2CCN(c3ccc(F)cc3)CC2)nc2cc(NC(=O)c3ccco3)ccc21 -36.2%, CC(O)(c1ccccc1)c1nc(-c2ccc3c(c2)OCO3)cs1 (stereo unspecified) -46.5%, CCCc1cnc(NCCNCC(O)COc2ccc(Cl)c(Cl)c2)nc1 (stereo unspecified) -46.8%, NC(=S)N/N=C\c1c2ccccc2cc2ccccc12 -40.4%, CCCC(=O)Oc1ccc(C2NC(=O)c3ccccc3O2)cc1 (stereo unspecified) -30.7%, Cc1ccc(NC(=O)CN2CCc3ccccc3C2)cc1S(=O)(=O)N(C)C -45.7%, COC(=O)[C@H](CC(C)C)NC(=O)CCc1nnc(COc2ccccc2)o1 -30.5%, O=[N+]([O-])c1ccc(N2CCN(CCO)CC2)cc1Sc1nc2ccccc2[nH]1 -36.6%, COC1=C(c2ccccc2)C(=O)c2ccccc2C1=O -46.3%, O=C(OCC(O)CN1CCCCC1)C12CC3CC(CC(C3)C1)C2 (stereo unspecified) -48.7%, COc1ccc(-c2cc(C(=O)Oc3ccc([N+](=O)[O-])cc3)c3ccccc3n2)cc1 -30.4%, COc1cc(N)ccc1Nc1c2ccccc2nc2ccccc12 -38.3%, S=C(Nc1cccc2ccccc12)Nc1cccc2ccccc12 -34.4%, COc1ccc(C2C(C#N)=C(N)N(Nc3ccccc3)C3=C2C(=O)CC(C)(C)C3)cc1C (stereo unspecified) -36%, COc1cccc(NC(=O)CNC(C)CCC(C)C)c1 (stereo unspecified) -32.1%, CCc1nc2ccc(C(=O)N(CC)CCN(C)C)cn2c1N(CC)C(=O)NCCc1ccccc1 -37.1%, CC1(C)CC(=O)C2=C(C1)Oc1ncn3nc(-c4cccnc4)nc3c1C2c1ccccc1 (stereo unspecified) -34.7%, COc1ccc(OC)c(NC(=O)C2CCN(S(=O)(=O)c3ccc4c(c3)OCCO4)CC2)c1 -37.6%

Max response, negative = inhibition, inactive:
CC(C)c1ccc(N(C(=O)c2snc(C(N)=O)c2N)C(C(=O)NC2CCCC2)c2ccncc2)cc1 (stereo unspecified) -14.5%, COCCCn1c(=O)c2ccccc2n(CC(=O)Nc2ccc3c(c2)OCCO3)c1=O -7.45%, CC[n+]1ccc(/C=C/c2c[nH]c3ccccc23)cc1 0.0603%, CCOc1ccc(NS(=O)(=O)c2ccc(NC(=S)NC(=O)C(C)C)cc2)cc1 -20.8%, CCN(CC)S(=O)(=O)c1cccc2c(N(C)C)cccc12 17.6%, CCN(Cc1cnn(C)c1)Cc1nc(Cc2ccccc2Cl)no1 -11.5%, CC(C)(C)n1nnnc1CN1CCN(C(c2ccccc2)c2ccccc2)CC1 15.7%, COc1ccccc1S(=O)(=O)c1ccccc1[N+](=O)[O-] -11.6%, CSCCC(NC(=O)c1ccccc1)C(=O)NC1CCCC1 (stereo unspecified) 3.73%, NC(=O)C1CCN(C2CC(=O)N(Cc3ccc(N4CCCC4=O)cc3)C2=O)CC1 (stereo unspecified) -2.21%, CC[C@]12c3[nH]c4ccccc4c3CCN1C(=O)C(CC(=O)NCc1cccc(C(F)(F)F)c1)C[C@@H]2C(=O)N1CCN(C(=O)c2ccco2)CC1 (stereo partly specified) 0%, COc1ccccc1N1CCN(C(=O)Nc2ccc([N+](=O)[O-])cc2)CC1 -22%, O=C(NCc1ccncc1)C(=O)NCC(c1ccco1)N1CCN(c2ccccc2F)CC1 (stereo unspecified) -6.47%, O=C1C2CCCCN2C(=O)N1CCN1CCN(c2cccc(Cl)c2)CC1 (stereo unspecified) -21.6%

— PubChem BioAssay AID652054 (National Center for Advancing Translational Sciences (NCATS), 2013)
